This test concerns the target T1, Myc-tagged SVCV phosphoprotein (SVCV-P) (spring viremia of carp virus (SVCV)) (UniProt Q91DS2).
T1 sequence: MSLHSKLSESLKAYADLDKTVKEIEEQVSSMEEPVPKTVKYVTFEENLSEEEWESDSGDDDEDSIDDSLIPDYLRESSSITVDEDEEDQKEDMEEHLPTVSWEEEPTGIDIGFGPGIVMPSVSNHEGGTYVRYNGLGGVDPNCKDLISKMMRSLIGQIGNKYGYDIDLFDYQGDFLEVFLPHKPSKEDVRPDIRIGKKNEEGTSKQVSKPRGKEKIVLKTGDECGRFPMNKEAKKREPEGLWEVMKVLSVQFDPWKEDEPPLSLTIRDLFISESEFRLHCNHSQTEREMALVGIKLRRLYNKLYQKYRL
Kind of test: co-IP; HEK293T cells co-transfected with the two tagged plasmids; lysate incubated with tag antibody overnight at 4°C, protein A-agarose beads, Western blot; in Fig. 4G cells treated with 1,6-HEX before lysis. (Immunoblotting shows a protein as a band on a membrane.)

These are yes or no findings as the source states them, for the method shown. Binding seen in cells or lysates may run through a third protein. Sequences can lack the tags named with a protein.

Among the data in paper PMC12817906, “SVCV phosphoprotein hijacks phase separation to immobilize the IRF3-TBK1 signaling axis and suppress interferon antiviral immunity” (Journal of Virology, 2025) are binding values, retold here.

Regarding Flag-tagged zebrafish IRF3, the binding result is listed as “no binding”.
